Here are results for one sequence from publication PMC12120873, “Evening complex component ELF3 interacts with LUX proteins to repress soybean root nodulation”.

The exact form of at least one protein or probe is not confirmed.

The subject of the series is LUX2-MBP (Glycine max). The series can be described thus: EMSA. The following applies: LightShift Chemiluminescent EMSA Kit (Pierce) binding buffer, composition, salt and pH not stated; room temperature 20 min; 6% native PAGE; recombinant protein; protein details: MBP; label: biotin. On the technique in general: A gel shift assay detects complexes by their altered migration in electrophoresis.

As for “TTGACATTCATATCCTTTGTATTTCAATTAGATTAGATATGTTCTACGGA (double strand) [probe-ENOD40 (P1 region)]”, the binding result is given as “binds”.
